# Results as given in patent publication US8227422B2, “Peptides and compounds that bind to a receptor” (Glaxosmithkline LLC, priority 1996, dated 2012).
# Not every detail of the peptide structures is certain; ends, links or a residue may be inferred. Where a SMILES comes first, the peptide text is derived from it.
# Tests used:
# TPO-R = biological target: T1, TPO-R (Homo sapiens, UniProt P40238); assay: Competition binding assay (equilibrium binding ELISA, MBP-TPO156 tracer) on immobilized TPO-R; conditions: Table 5; read-out: IC50
# T1 construct: made in house
# T1 sequence (P40238 26-491 limits assumed): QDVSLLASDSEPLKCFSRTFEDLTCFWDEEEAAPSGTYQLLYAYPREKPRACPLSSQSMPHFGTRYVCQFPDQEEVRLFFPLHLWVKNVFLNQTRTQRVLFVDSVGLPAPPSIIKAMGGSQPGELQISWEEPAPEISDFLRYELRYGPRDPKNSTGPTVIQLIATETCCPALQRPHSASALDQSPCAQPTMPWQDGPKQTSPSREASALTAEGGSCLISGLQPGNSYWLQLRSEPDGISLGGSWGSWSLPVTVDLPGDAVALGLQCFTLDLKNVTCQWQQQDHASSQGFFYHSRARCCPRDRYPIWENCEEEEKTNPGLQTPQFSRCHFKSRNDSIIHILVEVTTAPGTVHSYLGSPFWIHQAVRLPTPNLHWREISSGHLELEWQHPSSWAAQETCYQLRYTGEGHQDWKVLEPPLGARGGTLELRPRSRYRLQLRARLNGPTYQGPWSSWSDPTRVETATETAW
# [1] = biological target: T2, human TPO-R (transfected Ba/F3 cells) (Homo sapiens, UniProt P40238); assay: Thrombopoietin dependent cell proliferation assay (MTT), TPO-R transfected Ba/F3 cells; type: cell-based; conditions: Table 5, substitutions in cyclized compound; read-out: EC50 (nM) Cell Prolif.
# T2 construct: Murine IL-3 dependent Ba/F3 cells were transfected with full length human TPO-R; expressed in transfected cells; host or cells: murine Ba/F3 cells
# T2 sequence (P40238 26-635): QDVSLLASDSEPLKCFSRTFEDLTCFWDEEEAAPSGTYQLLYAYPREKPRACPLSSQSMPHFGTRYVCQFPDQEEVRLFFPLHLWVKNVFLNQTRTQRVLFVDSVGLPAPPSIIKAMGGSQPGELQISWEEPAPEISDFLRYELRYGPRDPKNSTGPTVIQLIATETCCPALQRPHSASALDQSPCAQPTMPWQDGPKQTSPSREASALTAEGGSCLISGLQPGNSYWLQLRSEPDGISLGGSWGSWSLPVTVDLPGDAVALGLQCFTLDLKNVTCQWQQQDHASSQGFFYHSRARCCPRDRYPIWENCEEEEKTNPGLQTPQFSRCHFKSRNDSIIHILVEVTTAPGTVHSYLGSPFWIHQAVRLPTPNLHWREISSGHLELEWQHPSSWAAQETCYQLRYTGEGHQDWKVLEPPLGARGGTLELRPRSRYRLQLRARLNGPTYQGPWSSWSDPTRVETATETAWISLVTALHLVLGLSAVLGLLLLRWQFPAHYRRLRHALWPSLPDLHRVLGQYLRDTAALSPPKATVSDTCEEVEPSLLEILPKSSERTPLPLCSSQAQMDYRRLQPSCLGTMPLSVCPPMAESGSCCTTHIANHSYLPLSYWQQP
# TPO receptor = biological target: T3, TPO receptor (Homo sapiens, UniProt P40238); assay: Microphysiometer assay: rate of acidification of extracellular medium on TPO receptor stimulation; type: cell-based; conditions: Table 5, value in parentheses; read-out: EC50 (nM), microphysiometer results given in parentheses
# T3 sequence (P40238 26-635): T2 sequence (P40238 26-635)
smiles,measurement,setting,value
"CC[C@H](C)[C@@H]1NC(=O)[C@H](Cc2c[nH]c3ccccc23)NC(=O)[C@H](CCC(=O)O)NC(=O)[C@H](CCCNC(=N)N)NC(=O)[C@H](CC(C)C)NC(=O)[C@H]([C@@H](C)O)NC(=O)[C@@H]2CCCN2C(=O)CNC(=O)[C@H](CC(=O)O)NC(=O)[C@H](C)NC(=O)[C@@H](N)CSSC[C@@H](C(N)=O)NC(=O)[C@H](Cc2ccc([N+](=O)[O-])cc2)NC(=O)[C@H](CO)NC1=O [F-(p-Nitrophe)] (HELM PEPTIDE1{C.A.D.G.P.T.L.R.E.W.I.S.[O=C([C@H](Cc1ccc([N+](=O)[O-])cc1)N[*:1])[*:2]].C.[am]}$PEPTIDE1,PEPTIDE1,1:R3-14:R3$$$V2.0)",IC50,TPO-R,≤ 500 nM
same,EC50,[1],< 500 nM
same,EC50,TPO receptor,< 500 nM
"CC[C@H](C)[C@@H]1NC(=O)[C@H](Cc2c[nH]c3ccccc23)NC(=O)[C@H](CCC(=O)O)NC(=O)[C@H](CCCNC(=N)N)NC(=O)[C@H](CC(C)C)NC(=O)[C@H]([C@@H](C)O)NC(=O)[C@@H]2CCCN2C(=O)CNC(=O)[C@H](CC(=O)O)NC(=O)[C@H](C)NC(=O)[C@@H](N)CSSC[C@@H](C(N)=O)NC(=O)[C@H](CCc2ccccc2)NC(=O)[C@H](CO)NC1=O [F-Homo-Phe] (HELM PEPTIDE1{C.A.D.G.P.T.L.R.E.W.I.S.[O=C([C@H](CCc1ccccc1)N[*:1])[*:2]].C.[am]}$PEPTIDE1,PEPTIDE1,1:R3-14:R3$$$V2.0)",IC50,TPO-R,≤ 500 nM
same,EC50,[1],< 500 nM
same,EC50,TPO receptor,< 500 nM
"CC[C@H](C)[C@@H]1NC(=O)[C@H](Cc2c[nH]c3ccccc23)NC(=O)[C@H](CCC(=O)O)NC(=O)[C@H](CCCNC(=N)N)NC(=O)[C@H](CC(C)C)NC(=O)[C@H]([C@@H](C)O)NC(=O)[C@@H]2CCCN2C(=O)CNC(=O)[C@H](CC(=O)O)NC(=O)[C@H](C)NC(=O)[C@@H](N)CSSC[C@@H](C(N)=O)NC(=O)[C@H](C)NC(=O)[C@H](CO)NC1=O [F–A] (HELM PEPTIDE1{C.A.D.G.P.T.L.R.E.W.I.S.A.C.[am]}$PEPTIDE1,PEPTIDE1,1:R3-14:R3$$$V2.0)",IC50,TPO-R,≤ 500 nM
same,EC50,[1],< 200000 nM
same,EC50,TPO receptor,< 200000 nM
"CC(C)C[C@@H]1NC(=O)[C@H]([C@@H](C)O)NC(=O)[C@@H]2CCCN2C(=O)CNC(=O)[C@H](CC(=O)O)NC(=O)[C@H](C)NC(=O)[C@@H](N)CSSC[C@@H](C(N)=O)NC(=O)[C@H](Cc2ccccc2)NC(=O)[C@H](CO)NC(=O)[C@H](C)NC(=O)[C@H](Cc2c[nH]c3ccccc23)NC(=O)[C@H](CCC(=O)O)NC(=O)[C@H](CCCNC(=N)N)NC1=O [I–A] (HELM PEPTIDE1{C.A.D.G.P.T.L.R.E.W.A.S.F.C.[am]}$PEPTIDE1,PEPTIDE1,1:R3-14:R3$$$V2.0)",IC50,TPO-R,≤ 200000 nM
same,EC50,[1],< 200000 nM
same,EC50,TPO receptor,< 200000 nM
"CC[C@H](C)[C@@H]1NC(=O)[C@H](Cc2c[nH]c3ccccc23)NC(=O)[C@H](CCC(=O)O)NC(=O)[C@H](CCCNC(=N)N)NC(=O)[C@H](CC(C)C)NC(=O)[C@H]([C@@H](C)O)NC(=O)[C@@H]2CCCN2C(=O)CNC(=O)[C@H](CC(=O)O)NC(=O)[C@H](C)NC(=O)[C@@H](N)CSSC[C@@H](C(N)=O)NC(=O)[C@H](Cc2ccccc2)NC(=O)C(C)(C)NC1=O [S-Aib] (HELM PEPTIDE1{C.A.D.G.P.T.L.R.E.W.I.[Aib].F.C.[am]}$PEPTIDE1,PEPTIDE1,1:R3-14:R3$$$V2.0)",IC50,TPO-R,≤ 500 nM
same,EC50,[1],< 500 nM
same,EC50,TPO receptor,< 200000 nM
"CCC[C@@H]1NC(=O)[C@H]([C@@H](C)CC)NC(=O)[C@H](Cc2c[nH]c3ccccc23)NC(=O)[C@H](CCC(=O)O)NC(=O)[C@H](CCCNC(=N)N)NC(=O)[C@H](CC(C)C)NC(=O)[C@H]([C@@H](C)O)NC(=O)[C@@H]2CCCN2C(=O)CNC(=O)[C@H](CC(=O)O)NC(=O)[C@H](C)NC(=O)[C@@H](N)CSSC[C@@H](C(N)=O)NC(=O)[C@H](Cc2ccccc2)NC1=O [S-Nva] (HELM PEPTIDE1{C.A.D.G.P.T.L.R.E.W.I.[Nva].F.C.[am]}$PEPTIDE1,PEPTIDE1,1:R3-14:R3$$$V2.0)",IC50,TPO-R,≤ 500 nM
same,EC50,[1],< 500 nM
same,EC50,TPO receptor,< 500 nM
"CC[C@H](C)[C@@H]1NC(=O)[C@H](Cc2c[nH]c3ccccc23)NC(=O)[C@H](CCC(=O)O)NC(=O)[C@H](CCCNC(=N)N)NC(=O)[C@H](CC(C)C)NC(=O)[C@H]([C@@H](C)O)NC(=O)[C@@H]2CCCN2C(=O)CNC(=O)[C@H](CC(=O)O)NC(=O)[C@H](C)NC(=O)[C@@H](N)CSSC[C@@H](C(N)=O)NC(=O)[C@H](Cc2ccccc2)NC(=O)[C@H](C)NC1=O [S–A] (HELM PEPTIDE1{C.A.D.G.P.T.L.R.E.W.I.A.F.C.[am]}$PEPTIDE1,PEPTIDE1,1:R3-14:R3$$$V2.0)",IC50,TPO-R,≤ 500 nM
same,EC50,[1],< 500 nM
same,EC50,TPO receptor,< 500 nM
